Results reported in PubChem BioAssay AID434947 (Broad Institute, 2010).
Among all 2,200 compounds or so, about 15 (0.7%) were called active.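 Rule for the calls: active = fitted half-maximal concentration for loss of luminescence signal no more than a set limit of log units above the top tested concentration; inconclusive = flat fit with 30 to 70% signal loss, or invalid fit; inactive = half-maximal concentration above that set limit.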 Some of the results follow.

assay: ADP-Glo luciferase signal interference – biochemical, luminescence, cell-free, homogeneous, artefact control for GSK3beta inhibitor project, dose response (AID 434947); conditions: Cell-free ADP-Glo reagents, 5 uM ADP;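 note: kinase-free counter screen of ADP-Glo detection reagents for GSK3beta hits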

EC50, inactive:
CCOC(=O)c1sc(=S)n(-c2ccccc2OC)c1N > 30 µM
COc1cccc(C2Nc3ccccc3NC3=C2C(=O)CC(C)(C)C3)c1 (centres undefined) > 30 µM
Cc1cccn2c(=O)nc(SCC(=O)NC3CCCCC3)nc12 > 30 µM
O=C(Nc1ccc(O)c2c(=O)cc(-c3ccccc3Cl)oc12)c1ccccc1Cl > 30 µM
Cc1cc(C(=O)OCCN2C(=O)c3ccccc3C2=O)c2ccccc2n1 > 30 µM
COc1ccc(C(=O)OCCc2sc[n+](CC(=O)c3ccccc3)c2C)cc1 > 30 µM
CN1CCc2[nH]c3ccc(C(=O)NN)cc3c2C1 > 30 µM
CC[n+]1c(/C=C/N(C)c2ccccc2)oc2ccc(F)cc21 > 30 µM
COC(=O)c1cn(NC(=O)c2cccnc2)c(=O)c2ccccc12 > 30 µM
CCCCCOC(=O)C1=C(C)Nc2ncnn2C1c1cccs1 (centres undefined) > 30 µM
COc1ccc2nc(NC(=O)CSc3n[nH]c(N)n3)sc2c1 > 30 µM
O=c1c(O)c(-c2ccc(O)c(O)c2)oc2cc(O)cc(O)c12 > 30 µM
OCCCNc1nccc(-c2cc(Nc3cccc(Cl)c3)ncn2)n1 > 30 µM
CSc1nc(NCc2ccccc2)c2c3c(sc2n1)CN(C)CC3 > 30 µM
CN(Cc1nc2c(s1)CCCC2)C(=O)CCc1nnc(-c2ccc3c(c2)OCO3)o1 > 30 µM
Cn1c(SCc2cccc(Br)c2)nnc1-c1ccncc1 > 30 µM
Nc1nc(NCC2CCCO2)nc(Nc2ccc(F)cc2)c1[N+](=O)[O-] (centres undefined) > 30 µM
CNC(=O)c1cc2cccc(OC)c2oc1=O > 30 µM
COc1ccc(-c2csc(N(CC3CCCO3)C(=O)c3ccccc3)n2)cc1 (centres undefined) > 30 µM
COC(=O)c1nnn(-c2nonc2N)c1CSc1ccccn1 > 30 µM
O=C1Nc2cc(C(=O)NCCCN3CCCC3)ccc2S/C1=C\c1ccccc1 > 30 µM
Nc1nonc1-n1nnc(C(=O)N/N=C/c2ccc(Cl)cc2Cl)c1CN1CCCCC1 > 30 µM
Cc1nnc2n(-c3ccccc3)c(=O)c3c4c(sc3n12)CC(C)CC4 (centres undefined) > 30 µM
Nc1nonc1-n1nnc(C(=O)N/N=C/c2c(F)cccc2Cl)c1-c1ccc2c(c1)OCO2 > 30 µM
CN(Cc1c(C(=O)N/N=C/c2cccc(F)c2)nnn1-c1nonc1N)c1ccccc1 > 30 µM
Cc1ccc(N2CC(C(=O)Nc3c4c(nn3C(C)(C)C)CS(=O)(=O)C4)CC2=O)cc1 (centres undefined) > 30 µM
CN1CCN(C(=O)CCS(=O)(=O)c2cc3c(cc2Cl)NC(=O)CO3)CC1 > 30 µM
CCOc1ccc2nc(NC(=O)CSc3nc(-c4ccccc4)c(C#N)c(=O)[nH]3)sc2c1 > 30 µM
O=C(COc1ccccc1Cl)Nc1ccc2c(c1)OCCO2 > 30 µM
COc1ccc(-n2sc3c(c2=S)-c2cc(OC)ccc2NC3(C)C)cc1 > 30 µM
CCn1c(=O)cc(OCC(=O)N(C)c2ccccc2F)c2ccccc21 > 30 µM
COc1cc(/C=N/O)ccc1OCc1ccccc1Cl > 30 µM
COC(=O)c1ccccc1Nc1ccnc(Cl)n1 > 30 µM
O=C1NC(=S)S/C1=C/c1ccc(N2CCOCC2)o1 > 30 µM
C=CCC1(CC=C)CCCN1C(=O)C1CCC(=O)N(CCc2ccc(OC)cc2)C1 (centres undefined) > 30 µM
Cc1ccnc(NC(=O)Cc2ccc([N+](=O)[O-])cc2)c1 > 30 µM
COCCNc1nc(N)c([N+](=O)[O-])c(NC2CCCCC2)n1 > 30 µM
COc1ccc(Cl)cc1-c1nc(N)nc(N(C)C)n1 > 30 µM
COc1cccc(-n2sc3c(c2=S)-c2cc(OC)ccc2NC3(C)C)c1 > 30 µM
Cc1ccc(NS(=O)(=O)c2cccc(C(=O)N/N=C/c3c(C)nn(-c4ccccc4)c3N3CCCC3)c2)c(C)c1 > 30 µM
CSc1nnnn1-c1c(C)cccc1C > 30 µM
NS(=O)(=O)c1ccc(N2CCCCCC2)c([N+](=O)[O-])c1 > 30 µM
CCCc1nc2c([nH]1)c(=O)n(C)c(=O)n2C > 30 µM
O=C(COc1ccccc1[N+](=O)[O-])N/N=C/c1ccccn1 > 30 µM
Cc1onc(-c2ccccc2Cl)c1C(=O)NNC(=O)c1ccc(F)cc1 > 30 µM
Cc1noc2c1C(c1ccc(N(C)C)cc1)C1=C(CC(C)(C)CC1=O)N2 (centres undefined) > 30 µM
CCCCCCCCCCCCC(=O)CCCCC(=O)O > 30 µM
CCOC(=O)c1cnc2ccc(OC)cc2c1NCCN1CCOCC1 > 30 µM
CCCc1cc(NCc2ccccn2)n2nc(C)c(-c3ccccc3)c2n1 > 30 µM
CC(C)Cn1nc(NC(=O)C(C)(C)C)c2cc3ccccc3nc21 > 30 µM
N#Cc1ccccc1CSc1nnc(-c2ccncc2)o1 > 30 µM
CC1CN(C(=O)CCc2cc(C(C)(C)C)c(O)c(C(C)(C)C)c2)CC(C)O1 (centres undefined) > 30 µM
c1ccc(CSc2nnc(-c3ccncc3)o2)cc1 > 30 µM
O=[N+]([O-])c1cc(/C=N\O)ccc1Oc1ccc(F)cc1 > 30 µM
c1ccc(CCCNCC2COc3ccccc3O2)cc1 (centres undefined) > 30 µM
Nc1nonc1-n1nnc(C(=O)N/N=C/c2ccoc2)c1CSc1ccccc1 > 30 µM
O=C(NCC(c1ccco1)N1CCN(c2ccc(F)cc2)CC1)c1cccs1 (centres undefined) > 30 µM
FC(F)(F)c1ccc(CSc2nccn2-c2ccccc2)cc1 > 30 µM
COc1ccc2occ(C(=O)c3coc4ccc(O)c(CN(C)C)c34)c2c1 > 30 µM

5 structures already listed, sorted by number of heavy atoms, falling.
EC50, inactive:
CCn1c(=O)cc(OCC(=O)N(C)c2ccccc2F)c2ccccc21 > 30 µM
Nc1nc(NCC2CCCO2)nc(Nc2ccc(F)cc2)c1[N+](=O)[O-] (centres undefined) > 30 µM
c1ccc(CCCNCC2COc3ccccc3O2)cc1 (centres undefined) > 30 µM
NS(=O)(=O)c1ccc(N2CCCCCC2)c([N+](=O)[O-])c1 > 30 µM
CN1CCc2[nH]c3ccc(C(=O)NN)cc3c2C1 > 30 µM
